Laboratory results taken from PubChem BioAssay AID256 (DTP/NCI, 2004).
The list is a part of this screen's results and no random one: it gathers some chemical classes. Not every dose and run of a compound is shown. T/C: endpoint of the treated group in % of that of the vehicle group. For survival time, this PubChem deposit counts one and a half times the control or more as active, and values a quarter to a half above the control carry no call in these data; other NCI protocols may use other cut-offs. Some T/C values are marked as having no survivor count here; that says nothing about deaths at the dose. Schedules are NCI's codes, taken here to give the interval after Q, in days (D) or hours (H), and the number of doses after X. Some entries hold several experiments; the results are listed from low to high.

Tested on: CD2F1 mice, L1210 leukemia ip, survival T/C
Assay: NCI In Vivo Anticancer Drug Screen. Data for tumor model L1210 Leukemia (intraperitoneal) in CD2F1 (CDF1) mice
Conditions: T/C endpoint: mean survival time, higher T/C = longer survival
Method in brief: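 Each value reflects a quotient of treated over vehicle control outcomes in mice with a transplanted tumor.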

Q: `CCN(CC)Cc1cccc(N(CCCl)CCCl)c1` was tested. Which T/C (dose: 12.5 mg/kg/injection, schedule: Q01DX009 (ip), vehicle: Klucel (hydroxypropylcellulose) (HPC)) did it give?
A: 103 [survivor count not shown] and 108 % of control [survivor count not shown]

Q: And the T/C (dose: 25.0 mg/kg/injection, schedule: Q01DX001 (ip), vehicle: Klucel (hydroxypropylcellulose) (HPC))?
A: 95 % of control [survivor count not shown]

Q: What about the T/C (dose: 25.0 mg/kg/injection, schedule: Q01DX009 (ip), vehicle: Klucel (hydroxypropylcellulose) (HPC)) of the same compound?
A: 97 [survivor count not shown], 110 [survivor count not shown], 112 % of control [survivor count not shown]

Q: And the T/C (dose: 25.0 mg/kg/injection, schedule: Q04DX002 (ip), vehicle: Klucel (hydroxypropylcellulose) (HPC))?
A: 95 % of control [survivor count not shown]

Q: And the T/C (dose: 25.0 mg/kg/injection, schedule: Q04DX003 (ip), vehicle: Klucel (hydroxypropylcellulose) (HPC))?
A: 103 % of control [survivor count not shown]

Q: What about the T/C (dose: 50.0 mg/kg/injection, schedule: Q01DX001 (ip), vehicle: Klucel (hydroxypropylcellulose) (HPC)) of the same compound?
A: 103 % of control [survivor count not shown]

Q: And the T/C (dose: 50.0 mg/kg/injection, schedule: Q01DX009 (ip), vehicle: Klucel (hydroxypropylcellulose) (HPC))?
A: 103 [survivor count not shown], 106 [survivor count not shown], 110 [survivor count not shown], 142 % of control [survivor count not shown]

Q: What about the T/C (dose: 50.0 mg/kg/injection, schedule: Q04DX002 (ip), vehicle: Klucel (hydroxypropylcellulose) (HPC)) of the same compound?
A: 94 % of control [survivor count not shown]

Q: What about the T/C (dose: 50.0 mg/kg/injection, schedule: Q04DX003 (ip), vehicle: Klucel (hydroxypropylcellulose) (HPC)) of the same compound?
A: 97 % of control [survivor count not shown]

Q: What about the T/C (dose: 100.0 mg/kg/injection, schedule: Q01DX001 (ip), vehicle: Klucel (hydroxypropylcellulose) (HPC)) of the same compound?
A: 100 % of control [survivor count not shown]

Q: And the T/C (dose: 100.0 mg/kg/injection, schedule: Q01DX009 (ip), vehicle: Klucel (hydroxypropylcellulose) (HPC))?
A: 118 [survivor count not shown], 124 [survivor count not shown], 130 [survivor count not shown], 132 % of control [survivor count not shown]

Q: What about the T/C (dose: 100.0 mg/kg/injection, schedule: Q04DX002 (ip), vehicle: Klucel (hydroxypropylcellulose) (HPC)) of the same compound?
A: 103 % of control [survivor count not shown]

Q: And the T/C (dose: 100.0 mg/kg/injection, schedule: Q04DX003 (ip), vehicle: Klucel (hydroxypropylcellulose) (HPC))?
A: 109 % of control [survivor count not shown]

Q: What about the T/C (dose: 200.0 mg/kg/injection, schedule: Q01DX001 (ip), vehicle: Klucel (hydroxypropylcellulose) (HPC)) of the same compound?
A: 103 % of control [survivor count not shown]

Q: And the T/C (dose: 200.0 mg/kg/injection, schedule: Q04DX002 (ip), vehicle: Klucel (hydroxypropylcellulose) (HPC))?
A: 111 % of control [survivor count not shown]

Q: What about the T/C (dose: 200.0 mg/kg/injection, schedule: Q04DX003 (ip), vehicle: Klucel (hydroxypropylcellulose) (HPC)) of the same compound?
A: 111 % of control [survivor count not shown]

Q: `CCN(CC)P(=O)(Cl)OC` (centres undefined) was tested. Which T/C (dose: 3.12 mg/kg/injection, schedule: Q01DX009 (ip), vehicle: DMSO) did it give?
A: 100 % of control [survivor count not shown]

Q: And the T/C (dose: 6.25 mg/kg/injection, schedule: Q01DX009 (ip), vehicle: DMSO)?
A: 96 % of control [survivor count not shown]

Q: What about the T/C (dose: 12.5 mg/kg/injection, schedule: Q01DX009 (ip), vehicle: DMSO) of the same compound?
A: 93 % of control [survivor count not shown]

Q: Which T/C (dose: 15.63 mg/kg/injection, schedule: Q01DX001 (ip), vehicle: distilled water + Tween-80) does the source give for `CC(c1ccccc1)N(CCCl)P(=O)(Cl)Cl` (centres undefined) here?
A: 103 % of control [survivor count not shown]

Q: And the T/C (dose: 31.25 mg/kg/injection, schedule: Q01DX001 (ip), vehicle: distilled water + Tween-80)?
A: 96 % of control [survivor count not shown]

Q: And the T/C (dose: 62.5 mg/kg/injection, schedule: Q01DX001 (ip), vehicle: distilled water + Tween-80)?
A: 102 % of control [survivor count not shown]

Q: What about the T/C (dose: 125.0 mg/kg/injection, schedule: Q01DX001 (ip), vehicle: distilled water + Tween-80) of the same compound?
A: 92 % of control [survivor count not shown]

Q: And the T/C (dose: 250.0 mg/kg/injection, schedule: Q01DX001 (ip), vehicle: distilled water + Tween-80)?
A: 96 % of control [survivor count not shown]

Q: For `CC1CCC(N(CCCl)CCCl)CC1` (centres undefined), which T/C (dose: 1.3 mg/kg/injection, schedule: Q01DX001 (ip), vehicle: saline) is on record?
A: 101 % of control [survivor count not shown]

Q: And the T/C (dose: 2.0 mg/kg/injection, schedule: Q01DX001 (ip), vehicle: saline)?
A: 106 % of control [survivor count not shown]

Q: What about the T/C (dose: 3.0 mg/kg/injection, schedule: Q01DX001 (ip), vehicle: saline) of the same compound?
A: 105 % of control [survivor count not shown]

Q: And the T/C (dose: 4.4 mg/kg/injection, schedule: Q01DX001 (ip), vehicle: saline)?
A: 110 % of control [survivor count not shown]

Q: And the T/C (dose: 6.7 mg/kg/injection, schedule: Q01DX001 (ip), vehicle: saline)?
A: 116 % of control [survivor count not shown]

Q: And the T/C (dose: 10.0 mg/kg/injection, schedule: Q01DX001 (ip), vehicle: saline)?
A: 115 % of control [survivor count not shown]

Q: And the T/C (dose: 15.0 mg/kg/injection, schedule: Q01DX001 (ip), vehicle: saline)?
A: 96 % of control [survivor count not shown]

Q: With `O=P(Cl)(Cl)N1CCCCCC1` as the compound, how does the T/C (dose: 100.0 mg/kg/injection, schedule: Q01DX001 (ip), vehicle: saline) read?
A: 102 % of control [survivor count not shown]

Q: What about the T/C (dose: 100.0 mg/kg/injection, schedule: Q04DX003 (ip), vehicle: saline with Tween-80) of the same compound?
A: 106 % of control [survivor count not shown]

Q: And the T/C (dose: 200.0 mg/kg/injection, schedule: Q01DX001 (ip), vehicle: saline)?
A: 93 % of control [survivor count not shown]

Q: What about the T/C (dose: 200.0 mg/kg/injection, schedule: Q04DX003 (ip), vehicle: saline with Tween-80) of the same compound?
A: 110 % of control [survivor count not shown]

Q: And the T/C (dose: 400.0 mg/kg/injection, schedule: Q01DX001 (ip), vehicle: saline)?
A: 90 % of control [survivor count not shown]

Q: With `CCC(C)NN(CCCl)CCCl` (centres undefined) as the compound, how does the T/C (dose: 25.0 mg/kg/injection, schedule: Q04DX003 (ip), vehicle: saline) read?
A: 101 % of control [survivor count not shown]

Q: What about the T/C (dose: 50.0 mg/kg/injection, schedule: Q04DX003 (ip), vehicle: saline) of the same compound?
A: 110 % of control [survivor count not shown]

Q: What about the T/C (dose: 100.0 mg/kg/injection, schedule: Q04DX003 (ip), vehicle: saline) of the same compound?
A: 135 % of control [survivor count not shown]
